Test results published in patent publication US20110021579A1, “PERITONEUM PROTECTING AGENT” (TOKAI UNIVERSITY EDUCATIONAL SYSTEM, priority 2005, published 2011).

Assay: Biochemical data and body weight of subtotally nephrectomized uremic rats undergoing peritoneal dialysis
Format: in vivo
Details: 21 weeks, mean ± SD
Source text: Six-week-old male Sprague-Dawley rats weighing 200±3 g (CLER Japan, Inc., Tokyo) were randomly assigned to: sham-operated control rats (Group 1: n=6); uremic rats without peritoneal dialysis (Group 2: n=12); and uremic rats undergoing peritoneal dialysis (n=24). The uremic rats undergoing peritoneal dialysis were further divided into two groups: a group dialyzed with 4.25% Dianeal (registered trademark) (3.86% glucose, 2.5 mEq/CAPD fluid, Baxter Healthcare Corp., Round Lake; IL, USA) (Group 3: n=12); and a group peritoneally dialyzed with 4.25% Dianeal (registered trademark) containing pyridoxamine (Pridorine, Biostratum Inc., NC, USA) at 5 mg/l (Group 4: n=12).
Uremic models were generated by 5/6 nephrectomy according to previous reports [Lameire N, et al. Kidney Int 54: 2194-2206, 1998; and Kleinknecht C, et al., Kidney Int 47: S51-S54, 1995]. The animals were provided free access to standard experimental rat chow (CE2: CLER Japan, Inc., Tokyo) containing 1.06% calcium, 0.9% phosphate, and 21% proteins, and tap water until the evening prior to slaughter. On the 13th week, Rat-o-Ports with a 13.5 cm catheter (Access Technologies, Norfolk Medical, Skokie, Ill., USA) were implanted into all the rats under anesthetization of isoflurane. The Rat-o-ports were implanted subcutaneously in the neck, after one week of which the peritoneal dialysis with 30 ml of dialysate was initiated twice a day. The PD was continued for 6 weeks [Zweers MM, et al., Nephrol Dial Transplant 16: 651-654, 2001]. Before the initiation of the peritoneal dialysis, four, five, and two rats had died respectively in Group 2, Group 3, and Group 4. In the end, there were obtained: sham-operated control group (Group 1: n=6); uremic group without peritoneal dialysis (Group 2: n=8); uremic group undergoing peritoneal dialysis (Group 3: n=7); and uremic group undergoing peritoneal dialysis with 5 mg pyridoxamine (Group 4: n=10).
After 6 weeks of PD, 4.25% Dianeal (registered trademark) was injected from the access port and a peritoneal equilibration test (60 minutes) was performed. Rats were then euthanatized by overanesthetization. Plasma was separated from the heparinized blood obtained at the 21st week. Mesenterium was excised and assessed by light microscopy or immunohistochemistry.
The concentrations of glucose, creatinine, urea, total cholesterol, and triglyceride in plasma and peritoneal dialysate were measured with an autoanalyzer (Hitachi 736-60, Hitachi Co. Ltd., Tokyo).

[1] = 6-week PD with pyridoxamine 5 mg/l (Group 4)

Compound: Cc1ncc(CO)c(CN)c1O [pyridoxamine]
- Plasma creatinine (6-week PD with 4.25% Dianeal containing pyridoxamine 5 mg/l (Group 4)): 1.3 ± 0.6 mg/dL
- Plasma glucose [1]: 155.2 ± 20.5 mg/dL
- Plasma urea [1]: 70.1 ± 23.4 mg/dL
- Total cholesterol [1]: 125.4 ± 31.8 mg/dL
- Triglycerides [1]: 122.5 ± 50.2 mg/dL
